The supplement of paper PMC10849652
Some of the results follow. Residues, ends and D or L forms follow the SMILES beside them. *: point of attachment. Cbz = O=C(OCc1ccccc1)*

Amino acid sequences for entries named in this document (tags omitted). A change or cut given only in a name is not applied to a line headed by its entry.
UniProt O94880: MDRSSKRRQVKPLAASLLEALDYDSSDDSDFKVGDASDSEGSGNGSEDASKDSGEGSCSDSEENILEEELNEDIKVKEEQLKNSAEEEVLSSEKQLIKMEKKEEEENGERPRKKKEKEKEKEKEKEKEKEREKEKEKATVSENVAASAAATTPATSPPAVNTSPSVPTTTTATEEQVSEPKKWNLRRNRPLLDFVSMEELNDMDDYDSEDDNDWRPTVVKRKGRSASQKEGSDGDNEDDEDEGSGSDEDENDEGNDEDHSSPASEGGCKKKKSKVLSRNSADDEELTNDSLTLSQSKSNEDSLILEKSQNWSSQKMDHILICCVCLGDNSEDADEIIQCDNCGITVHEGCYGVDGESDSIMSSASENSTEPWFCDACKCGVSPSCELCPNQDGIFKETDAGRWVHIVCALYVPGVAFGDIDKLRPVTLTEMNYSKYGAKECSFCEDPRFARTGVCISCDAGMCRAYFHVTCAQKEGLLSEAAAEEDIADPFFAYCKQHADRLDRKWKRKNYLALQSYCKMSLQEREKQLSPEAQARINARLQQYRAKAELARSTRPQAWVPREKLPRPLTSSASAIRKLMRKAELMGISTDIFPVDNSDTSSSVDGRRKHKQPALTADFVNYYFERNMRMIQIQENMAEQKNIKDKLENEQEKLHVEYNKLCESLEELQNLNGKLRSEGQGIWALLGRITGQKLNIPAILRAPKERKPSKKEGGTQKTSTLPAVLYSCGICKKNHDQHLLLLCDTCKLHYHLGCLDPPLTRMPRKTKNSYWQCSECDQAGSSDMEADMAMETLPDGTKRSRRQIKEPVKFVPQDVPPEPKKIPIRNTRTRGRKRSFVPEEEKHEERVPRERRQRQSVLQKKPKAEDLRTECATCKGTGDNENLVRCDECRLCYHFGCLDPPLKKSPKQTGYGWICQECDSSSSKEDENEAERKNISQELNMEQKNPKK
UniProt Q9UBF8: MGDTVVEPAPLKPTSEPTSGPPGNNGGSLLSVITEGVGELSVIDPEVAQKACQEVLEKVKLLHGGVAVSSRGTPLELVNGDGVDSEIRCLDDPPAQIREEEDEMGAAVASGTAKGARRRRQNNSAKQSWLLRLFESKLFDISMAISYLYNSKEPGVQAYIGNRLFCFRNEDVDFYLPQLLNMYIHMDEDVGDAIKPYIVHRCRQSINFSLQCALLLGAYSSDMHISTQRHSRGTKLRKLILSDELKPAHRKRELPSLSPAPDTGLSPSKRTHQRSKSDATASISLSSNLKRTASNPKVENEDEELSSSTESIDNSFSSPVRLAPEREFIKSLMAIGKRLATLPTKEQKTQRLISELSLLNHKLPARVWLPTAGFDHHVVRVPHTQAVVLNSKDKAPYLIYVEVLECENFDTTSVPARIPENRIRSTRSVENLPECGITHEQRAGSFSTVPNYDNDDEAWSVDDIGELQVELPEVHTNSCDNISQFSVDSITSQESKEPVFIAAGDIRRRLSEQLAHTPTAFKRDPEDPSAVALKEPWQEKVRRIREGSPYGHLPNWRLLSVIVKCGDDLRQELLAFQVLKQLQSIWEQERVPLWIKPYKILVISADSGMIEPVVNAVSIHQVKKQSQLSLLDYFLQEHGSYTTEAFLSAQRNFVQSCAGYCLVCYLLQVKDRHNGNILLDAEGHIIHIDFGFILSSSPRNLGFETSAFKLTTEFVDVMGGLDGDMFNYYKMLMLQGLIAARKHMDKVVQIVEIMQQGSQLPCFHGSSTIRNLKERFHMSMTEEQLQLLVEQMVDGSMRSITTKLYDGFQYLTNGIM
UniProt O60346: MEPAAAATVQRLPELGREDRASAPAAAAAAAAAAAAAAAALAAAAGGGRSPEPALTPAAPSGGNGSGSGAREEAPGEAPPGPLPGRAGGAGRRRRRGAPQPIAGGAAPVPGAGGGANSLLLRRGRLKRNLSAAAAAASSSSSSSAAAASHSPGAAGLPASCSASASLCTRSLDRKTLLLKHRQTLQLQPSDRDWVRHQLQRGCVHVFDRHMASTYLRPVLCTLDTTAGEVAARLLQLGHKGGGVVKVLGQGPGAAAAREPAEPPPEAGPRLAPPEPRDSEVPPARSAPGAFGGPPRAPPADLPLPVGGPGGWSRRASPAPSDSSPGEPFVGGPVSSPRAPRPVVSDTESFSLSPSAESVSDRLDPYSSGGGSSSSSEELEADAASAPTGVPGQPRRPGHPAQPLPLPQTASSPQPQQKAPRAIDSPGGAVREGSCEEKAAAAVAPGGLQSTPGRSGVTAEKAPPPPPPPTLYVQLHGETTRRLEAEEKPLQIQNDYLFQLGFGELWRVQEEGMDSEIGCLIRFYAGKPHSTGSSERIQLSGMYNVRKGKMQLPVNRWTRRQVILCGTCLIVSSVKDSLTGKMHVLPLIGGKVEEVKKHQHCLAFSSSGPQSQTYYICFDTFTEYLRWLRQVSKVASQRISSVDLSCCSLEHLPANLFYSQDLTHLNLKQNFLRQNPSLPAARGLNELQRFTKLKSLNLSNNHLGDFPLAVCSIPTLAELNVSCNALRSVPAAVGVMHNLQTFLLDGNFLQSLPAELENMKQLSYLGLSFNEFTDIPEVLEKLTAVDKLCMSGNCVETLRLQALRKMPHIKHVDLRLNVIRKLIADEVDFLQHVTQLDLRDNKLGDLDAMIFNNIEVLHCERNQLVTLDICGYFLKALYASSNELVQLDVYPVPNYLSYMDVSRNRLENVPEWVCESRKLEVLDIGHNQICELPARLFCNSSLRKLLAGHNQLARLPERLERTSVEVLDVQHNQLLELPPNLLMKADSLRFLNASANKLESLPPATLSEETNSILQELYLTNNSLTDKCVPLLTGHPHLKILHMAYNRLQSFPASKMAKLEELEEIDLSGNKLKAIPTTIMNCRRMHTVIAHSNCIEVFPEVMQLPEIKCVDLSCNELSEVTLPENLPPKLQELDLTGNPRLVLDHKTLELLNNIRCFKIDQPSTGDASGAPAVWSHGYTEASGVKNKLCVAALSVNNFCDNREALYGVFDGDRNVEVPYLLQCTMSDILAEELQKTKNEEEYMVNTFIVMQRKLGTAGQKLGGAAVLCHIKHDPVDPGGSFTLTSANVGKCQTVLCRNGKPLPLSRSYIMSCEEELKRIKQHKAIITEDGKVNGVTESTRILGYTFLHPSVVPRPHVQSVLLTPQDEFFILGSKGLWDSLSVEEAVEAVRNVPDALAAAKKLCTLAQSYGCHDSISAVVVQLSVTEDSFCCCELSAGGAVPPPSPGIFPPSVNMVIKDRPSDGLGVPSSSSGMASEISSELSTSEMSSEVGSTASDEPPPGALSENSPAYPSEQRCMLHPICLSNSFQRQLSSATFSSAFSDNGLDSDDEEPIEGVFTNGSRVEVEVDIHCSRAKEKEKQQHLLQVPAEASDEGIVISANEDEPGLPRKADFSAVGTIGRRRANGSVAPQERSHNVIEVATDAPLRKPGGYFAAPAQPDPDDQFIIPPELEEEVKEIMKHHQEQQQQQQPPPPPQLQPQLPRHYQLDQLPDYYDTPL
UniProt Q99755: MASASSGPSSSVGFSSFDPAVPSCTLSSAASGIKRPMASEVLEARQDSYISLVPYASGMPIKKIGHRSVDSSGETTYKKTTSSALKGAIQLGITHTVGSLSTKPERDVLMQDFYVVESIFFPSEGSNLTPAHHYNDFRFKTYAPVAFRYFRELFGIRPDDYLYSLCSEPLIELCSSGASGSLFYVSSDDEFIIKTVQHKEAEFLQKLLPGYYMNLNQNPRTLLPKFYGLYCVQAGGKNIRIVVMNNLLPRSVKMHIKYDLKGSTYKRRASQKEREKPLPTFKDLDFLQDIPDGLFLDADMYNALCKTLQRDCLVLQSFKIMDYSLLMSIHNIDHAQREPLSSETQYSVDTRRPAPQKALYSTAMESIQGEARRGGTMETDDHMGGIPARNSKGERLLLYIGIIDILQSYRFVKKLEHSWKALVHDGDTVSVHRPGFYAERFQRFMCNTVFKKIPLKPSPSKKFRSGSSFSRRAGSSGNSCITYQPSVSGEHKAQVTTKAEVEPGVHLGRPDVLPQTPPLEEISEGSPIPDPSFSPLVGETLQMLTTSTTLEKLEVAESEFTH
UniProt Q8N4B1: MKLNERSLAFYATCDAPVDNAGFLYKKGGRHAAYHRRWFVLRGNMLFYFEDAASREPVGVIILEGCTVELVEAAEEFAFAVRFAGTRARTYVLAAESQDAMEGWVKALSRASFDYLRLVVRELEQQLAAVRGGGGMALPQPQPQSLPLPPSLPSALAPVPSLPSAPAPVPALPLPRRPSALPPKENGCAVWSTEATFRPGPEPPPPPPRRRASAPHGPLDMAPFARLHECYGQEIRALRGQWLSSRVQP
UniProt O60331: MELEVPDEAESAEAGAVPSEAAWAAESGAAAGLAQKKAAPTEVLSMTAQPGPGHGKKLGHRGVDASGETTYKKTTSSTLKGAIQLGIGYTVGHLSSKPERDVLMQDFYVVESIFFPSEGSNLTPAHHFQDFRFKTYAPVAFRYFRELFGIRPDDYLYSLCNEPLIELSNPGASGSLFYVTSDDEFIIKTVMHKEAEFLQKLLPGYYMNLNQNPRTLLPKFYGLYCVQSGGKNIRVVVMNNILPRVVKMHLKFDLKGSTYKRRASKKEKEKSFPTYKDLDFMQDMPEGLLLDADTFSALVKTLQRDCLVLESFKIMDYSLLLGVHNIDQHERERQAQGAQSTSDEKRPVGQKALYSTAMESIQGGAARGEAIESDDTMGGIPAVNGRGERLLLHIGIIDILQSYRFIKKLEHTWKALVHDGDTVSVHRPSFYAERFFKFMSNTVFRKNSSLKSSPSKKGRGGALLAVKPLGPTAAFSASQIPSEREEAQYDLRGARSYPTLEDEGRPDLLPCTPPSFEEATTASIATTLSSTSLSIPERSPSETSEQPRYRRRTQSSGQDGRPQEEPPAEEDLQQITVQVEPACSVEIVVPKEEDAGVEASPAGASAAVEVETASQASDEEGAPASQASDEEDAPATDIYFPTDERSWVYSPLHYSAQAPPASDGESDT
UniProt P60673: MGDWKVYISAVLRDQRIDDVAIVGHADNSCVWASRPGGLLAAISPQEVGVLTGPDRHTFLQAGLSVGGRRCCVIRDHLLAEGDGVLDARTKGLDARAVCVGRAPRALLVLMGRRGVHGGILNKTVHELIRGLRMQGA
UniProt Q8TEQ8: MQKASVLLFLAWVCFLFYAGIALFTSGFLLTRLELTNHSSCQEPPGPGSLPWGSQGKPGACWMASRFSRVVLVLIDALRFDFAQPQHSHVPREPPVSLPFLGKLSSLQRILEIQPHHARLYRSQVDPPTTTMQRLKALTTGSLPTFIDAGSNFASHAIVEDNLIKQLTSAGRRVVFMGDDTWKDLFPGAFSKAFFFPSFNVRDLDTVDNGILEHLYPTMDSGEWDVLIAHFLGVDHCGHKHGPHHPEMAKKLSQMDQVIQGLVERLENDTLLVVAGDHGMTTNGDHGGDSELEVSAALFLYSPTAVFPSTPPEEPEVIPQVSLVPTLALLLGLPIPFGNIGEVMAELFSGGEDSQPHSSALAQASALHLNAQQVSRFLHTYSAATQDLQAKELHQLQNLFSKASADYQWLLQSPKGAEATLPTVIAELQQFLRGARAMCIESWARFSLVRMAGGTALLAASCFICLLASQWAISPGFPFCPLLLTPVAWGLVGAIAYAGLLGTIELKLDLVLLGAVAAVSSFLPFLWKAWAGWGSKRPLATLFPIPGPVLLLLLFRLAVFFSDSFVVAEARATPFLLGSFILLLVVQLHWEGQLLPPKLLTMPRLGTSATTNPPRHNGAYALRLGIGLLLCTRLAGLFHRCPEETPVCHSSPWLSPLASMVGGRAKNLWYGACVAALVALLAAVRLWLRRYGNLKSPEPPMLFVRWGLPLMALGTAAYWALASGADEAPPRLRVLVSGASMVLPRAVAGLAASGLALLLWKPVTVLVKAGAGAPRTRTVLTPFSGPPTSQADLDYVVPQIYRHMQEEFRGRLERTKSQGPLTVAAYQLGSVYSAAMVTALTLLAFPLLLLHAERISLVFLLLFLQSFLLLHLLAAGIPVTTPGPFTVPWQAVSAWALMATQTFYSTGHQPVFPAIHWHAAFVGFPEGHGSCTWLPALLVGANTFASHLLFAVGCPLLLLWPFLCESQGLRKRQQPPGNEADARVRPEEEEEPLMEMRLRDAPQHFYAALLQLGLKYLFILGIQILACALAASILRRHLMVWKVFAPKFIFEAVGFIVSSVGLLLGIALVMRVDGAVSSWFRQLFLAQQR
UniProt Q8TBF5: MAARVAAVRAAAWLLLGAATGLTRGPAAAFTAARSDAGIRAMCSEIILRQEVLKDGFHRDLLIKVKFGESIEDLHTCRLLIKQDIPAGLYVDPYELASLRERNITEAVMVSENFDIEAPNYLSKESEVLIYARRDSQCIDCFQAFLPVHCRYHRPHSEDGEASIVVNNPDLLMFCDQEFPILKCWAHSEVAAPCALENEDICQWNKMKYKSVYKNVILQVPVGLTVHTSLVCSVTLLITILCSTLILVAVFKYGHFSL

Tests used:
Test in all cases: log2 fold change, soluble protein after heating vs DMSO (PISA); higher = thermal stabilisation; K562 cells, 10 uM, 30 min; active = over 0.2 and 3.5 SD of the protein, either way, in both replicates (recomputed)
[1] = compound: C1=CC=C(C=C1)C2=NC(=C(N2)C3=CC=NC=C3)C4=CC(=C(C=C4)Cl)O
How it was run: (§1)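 For each measurement, 10 μM compound was applied for 30 min to K562 cells at 2×10^6 cells/mL. Aliquots were heated for 3 min across 48°C-58°C, pooled, and extracted in PBS with 0.5% NP-40 at 4°C; the supernatant after 21,000xg for 90 min was soluble protein. This was quantified by TMTpro 16plex LC-MS/MS with channel sums equalised, and thermal stability was reported relative to control samples from duplicates, on a log2 fold-change scale.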

[2] = compound: C1CCN(C1)C(=O)NC2=CC=CC(=C2)NC3=NC=C(C(=N3)NCCC4=CN=CN4)Br
How it was run: as §1

[3] = compound: C1CN(CCC1(CC2=CC=C(C=C2)Cl)N)C3=NC=NC4=C3C=CN4
How it was run: as §1

ralimetinib = compound: CC(C)(C)Cn1c(N)nc2ccc(-c3[nH]c(C(C)(C)C)nc3-c3ccc(F)cc3)nc21 [ralimetinib]
How it was run: as §1

[4] = compound: CC(C)C[C@@H](C=O)NC(=O)[C@H](CC(C)C)NC(=O)[C@H](CC(C)C)NC(=O)OCc1ccccc1
How it was run: as §1

[5] = compound: CC1=C(C2=C(C=C1)C(=O)C3=CC=CC=C3N2CCCN)C
How it was run: as §1

[6] = compound: C1=CC(=C(C=C1Cl)C2=NC3=NC=CN=C3C(=N2)NC4=CC=NC=C4)F
How it was run: as §1

[7] = compound: C1=CC2=NC=CN=C2C=C1/C=C/3\C(=O)NC(=O)S3
How it was run: as §1

IRAK-1-4 Inhibitor I = compound: C1COCCN1CCN2C3=CC=CC=C3N=C2NC(=O)C4=CC(=CC=C4)[N+](=O)[O-] [IRAK-1-4 Inhibitor I]
How it was run: as §1

ibrutinib = compound: C=CC(=O)N1CCC[C@@H](n2nc(-c3ccc(Oc4ccccc4)cc3)c3c(N)ncnc32)C1 [ibrutinib]
How it was run: as §1

[8] = compound: CC(C)(O)CC(=O)NCCn1ccc2ncnc(Nc3ccc(Oc4cccc(C(F)(F)F)c4)c(Cl)c3)c21
How it was run: as §1

pinometostat = compound: CC(C)N(C[C@H]1O[C@@H](n2cnc3c(N)ncnc32)[C@H](O)[C@@H]1O)[C@H]1C[C@@H](CCc2nc3cc(C(C)(C)C)ccc3[nH]2)C1 [pinometostat]
How it was run: as §1

erlotinib = compound: C#Cc1cccc(Nc2ncnc3cc(OCCOC)c(OCCOC)cc23)c1 [erlotinib]
How it was run: as §1

[9] = compound: C1=CC(=CC=C1C2=NC3=C(N2)C=C(C=C3)C(=O)N)OC4=CC=C(C=C4)Cl
How it was run: as §1

[10] = compound: CC(C)C1=C2N=C(C=C(N2N=C1)NCC3=CC=CC=C3)NCCCCCCN
How it was run: as §1

[11] = compound: C/C(=N\NC(=O)C1=CC(=CC=C1)S(=O)(=O)N2CCOCC2)/C3=C(C=CC(=C3)Cl)O
How it was run: as §1

[12] = compound: C1=CC2=C(C=CC(=C2)/C=C\3/C(=O)NC(=NCC4=CC=CS4)S3)N=C1
How it was run: as §1

[13] = compound: C1=CC=C2C(=C1)C3=NNC4=CC=CC(=C43)C2=O
How it was run: as §1

[14] = compound: CC(=O)c1cnc2ccc(-c3cc(Cl)c(O)c(Cl)c3)nc2c1N[C@H]1CC[C@H](CN(C)C)CC1
How it was run: as §1

[15] = compound: CC1=C(C(CC(=O)N1)C2=CC=C(C=C2)C(F)(F)F)C(=O)NC3=C(C=C4C(=C3)C=NN4)F
How it was run: as §1

Measured: log2 fold change

PHF14 (UniProt O94880)
inactive: [1] 0.098 | [2] 0.019 | [3] 0.06 | ralimetinib 0.079 | [4] 0.202 | [5] -0.423

PGD (UniProt K7EM49)
inactive: [6] -0.334 | [7] -0.159 | [1] -0.307 | IRAK-1-4 Inhibitor I 0.039 | ibrutinib 0.029 | ralimetinib -0.156 | [8] -0.008 | [4] 0.174 | pinometostat 0.081

PHC3 isoform 7 (UniProt Q8NDX5)
inactive: erlotinib 0.08 | [6] 0.24 | [9] -0.002 | [7] 0.174 | IRAK-1-4 Inhibitor I -0.377 | ibrutinib -0.159 | [8] -0.25 | [10] -0.219 | pinometostat -0.11

PIBF1 (UniProt Q8WXW3)
inactive: erlotinib 0.089 | [9] -0.124 | [7] 0.041 | [2] 0.079 | [3] -0.134 | ibrutinib 0.107 | [10] 0.183 | [5] 0.078

PI4KB isoform 2 (UniProt Q9UBF8)
inactive: erlotinib -0.098 | [9] 0.109 | [10] -0.218

PHLPP1 (UniProt O60346)
inactive: [6] -0.092 | [2] 0.021 | [3] -0.133 | [8] 0.001 | [5] 0.138

PKMYT1 (UniProt Q99640)
inactive: erlotinib -0.123 | [6] -0.013 | [9] -0.108 | [1] -0.454 | ralimetinib 0.331 | [8] 0.123 | [10] 0.145 | [4] 0.377

Two records drawn at random from the list so far:
PHC3 isoform 7 (UniProt Q8NDX5)
inactive: erlotinib 0.08 | [6] 0.24 | [9] -0.002 | [7] 0.174 | IRAK-1-4 Inhibitor I -0.377 | ibrutinib -0.159 | [8] -0.25 | [10] -0.219 | pinometostat -0.11

PIBF1 (UniProt Q8WXW3)
inactive: erlotinib 0.089 | [9] -0.124 | [7] 0.041 | [2] 0.079 | [3] -0.134 | ibrutinib 0.107 | [10] 0.183 | [5] 0.078

The list goes on.

PIAS1 isoform 2 (UniProt O75925)
inactive: [7] 0.158 | [1] 0 | IRAK-1-4 Inhibitor I 0.057 | ibrutinib -0.641 | ralimetinib 0.056 | [4] 0.19 | pinometostat 0.076

PKP4 (UniProt Q99569)
inactive: erlotinib 0.186 | [6] -0.094 | [9] 0.078 | [1] -0.124 | ralimetinib 0.152 | [8] 0.084 | [10] -0.027 | [4] -0.09

PIP5K1A (UniProt Q99755)
inactive: [11] 0.17 | [6] -0.223 | [12] -0.013 | [7] -0.003 | [1] 0.098 | [13] -0.115 | [2] -0.141 | [3] -0.174 | IRAK-1-4 Inhibitor I -0.082 | ibrutinib 0.068 | [14] 0.262 | ralimetinib 0.045 | [8] -0.016 | [4] 0.081 | pinometostat 0.197 | [15] 0.185 | [5] -0.063

PGM1 isoform 2 (UniProt P36871)
inactive: erlotinib 0.111 | [9] -0.111 | [10] 0.244

PLCXD1 (UniProt Q9NUJ7)
inactive: [7] 0.025 | [1] -0.012 | ibrutinib 0.021 | ralimetinib 0.113 | [4] 0.175

PHETA1 isoform 4 (UniProt Q8N4B1)
inactive: [11] 0.036 | [12] 0.035 | [13] -0.365 | [14] -0.123

PIGN (UniProt O95427)
inactive: [11] -0.004 | [6] -0.037 | [12] -0.007 | [7] -0.039 | [1] 0.067 | [13] 0.178 | [2] 0.06 | [3] -0.008 | IRAK-1-4 Inhibitor I -0.033 | ibrutinib 0.057 | [14] 0.043 | ralimetinib -0.023 | [8] -0.076 | [4] 0.017 | pinometostat 0.006 | [15] -0.151 | [5] -0.133

PIP5K1C isoform 3 (UniProt O60331)
inactive: erlotinib 0.047 | [6] -0.17 | [9] -0.107 | [7] 0.092 | [2] -0.143 | [3] 0.049 | ibrutinib -0.106 | [8] -0.119 | [10] -0.213 | [5] -0.142

PFN3 (UniProt P60673)
inactive: [11] 0.141 | [6] -0.002 | [12] 0.168 | [13] -0.486 | [2] 0.072 | [3] 0.352 | [14] -0.569 | [8] -0.578 | [5] 0.066

PHF19 isoform 2 (UniProt Q5T6S3)
inactive: erlotinib 0.003 | [6] -0.027 | [9] -0.011 | [7] -0.259 | [1] -0.041 | [2] -0.162 | [3] 0.059 | IRAK-1-4 Inhibitor I 0.184 | ibrutinib 0.138 | ralimetinib 0.018 | [8] -0.092 | [10] -0.044 | [4] 0.16 | pinometostat 0.01 | [15] 0.057 | [5] 0.111

PIGO (UniProt Q8TEQ8)
inactive: erlotinib 0.031 | [6] -0.075 | [9] 0.027 | [7] 0.074 | [2] -0.066 | [3] 0.105 | IRAK-1-4 Inhibitor I -0.055 | ibrutinib -0.016 | [8] -0.066 | [10] -0.202 | pinometostat 0.023 | [15] 0.026 | [5] -0.031

PIGX isoform 2 (UniProt Q8TBF5)
inactive: erlotinib 0 | [6] -0.04 | [9] 0.015 | [7] 0.017 | [2] 0.075 | [3] -0.049 | ibrutinib -0.022 | [8] -0.108 | [10] 0.032 | [5] -0.074
